Construct, isoform or probe ends are uncertain for at least one entry. For some assays here: The comparison behind a weaker result is the experiment's own reference, which may not be listed here. For some assays here: At least one verdict was read from the data and is not stated in words by the source.
Legend:
[1] = test system: Mlh1-Mlh3 (Saccharomyces cerevisiae); assay: competition with a labelled probe; details: ineffective competitor of plasmid nicking, 0-2000 nM, 1 mM Mg2+, text cites nM Kd from earlier work; recombinant protein
MLH1-PMS2 (Homo sapiens) = assay: competition with a labelled probe; details: inhibits plasmid nicking, 1 uM RFC and PCNA, 0.5 mM ATP, 1 mM Mn2+; recombinant protein

Chains of the proteins cited; added tags and fusions are not shown. A line that says so, or that is headed by a name, gives the form on record, which may keep a tag or linker.
Mlh1-Mlh3 (Saccharomyces cerevisiae), one chain, as listed by the source, chain 2 of 2: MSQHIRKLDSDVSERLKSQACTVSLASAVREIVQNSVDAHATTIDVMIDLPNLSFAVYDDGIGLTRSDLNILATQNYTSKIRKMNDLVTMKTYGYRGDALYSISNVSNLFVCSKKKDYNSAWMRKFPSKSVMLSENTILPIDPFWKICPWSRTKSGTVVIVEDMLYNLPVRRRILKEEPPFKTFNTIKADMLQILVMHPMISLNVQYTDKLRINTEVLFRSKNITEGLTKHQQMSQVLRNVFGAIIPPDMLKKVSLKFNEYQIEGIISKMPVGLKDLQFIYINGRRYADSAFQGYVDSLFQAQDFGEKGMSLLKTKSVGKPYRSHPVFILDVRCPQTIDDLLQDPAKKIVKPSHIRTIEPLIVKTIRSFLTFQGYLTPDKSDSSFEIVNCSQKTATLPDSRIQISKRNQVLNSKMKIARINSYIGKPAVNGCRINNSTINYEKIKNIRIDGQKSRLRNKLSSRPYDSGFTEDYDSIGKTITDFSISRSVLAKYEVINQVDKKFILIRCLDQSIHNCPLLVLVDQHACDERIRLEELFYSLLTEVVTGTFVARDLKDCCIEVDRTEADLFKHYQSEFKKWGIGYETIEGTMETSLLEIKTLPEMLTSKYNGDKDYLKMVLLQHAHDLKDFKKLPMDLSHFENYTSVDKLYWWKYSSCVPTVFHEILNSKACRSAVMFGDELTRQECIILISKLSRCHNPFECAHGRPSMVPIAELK
MLH1-PMS2 (Homo sapiens), one chain, as listed by the source, chain 2 of 2: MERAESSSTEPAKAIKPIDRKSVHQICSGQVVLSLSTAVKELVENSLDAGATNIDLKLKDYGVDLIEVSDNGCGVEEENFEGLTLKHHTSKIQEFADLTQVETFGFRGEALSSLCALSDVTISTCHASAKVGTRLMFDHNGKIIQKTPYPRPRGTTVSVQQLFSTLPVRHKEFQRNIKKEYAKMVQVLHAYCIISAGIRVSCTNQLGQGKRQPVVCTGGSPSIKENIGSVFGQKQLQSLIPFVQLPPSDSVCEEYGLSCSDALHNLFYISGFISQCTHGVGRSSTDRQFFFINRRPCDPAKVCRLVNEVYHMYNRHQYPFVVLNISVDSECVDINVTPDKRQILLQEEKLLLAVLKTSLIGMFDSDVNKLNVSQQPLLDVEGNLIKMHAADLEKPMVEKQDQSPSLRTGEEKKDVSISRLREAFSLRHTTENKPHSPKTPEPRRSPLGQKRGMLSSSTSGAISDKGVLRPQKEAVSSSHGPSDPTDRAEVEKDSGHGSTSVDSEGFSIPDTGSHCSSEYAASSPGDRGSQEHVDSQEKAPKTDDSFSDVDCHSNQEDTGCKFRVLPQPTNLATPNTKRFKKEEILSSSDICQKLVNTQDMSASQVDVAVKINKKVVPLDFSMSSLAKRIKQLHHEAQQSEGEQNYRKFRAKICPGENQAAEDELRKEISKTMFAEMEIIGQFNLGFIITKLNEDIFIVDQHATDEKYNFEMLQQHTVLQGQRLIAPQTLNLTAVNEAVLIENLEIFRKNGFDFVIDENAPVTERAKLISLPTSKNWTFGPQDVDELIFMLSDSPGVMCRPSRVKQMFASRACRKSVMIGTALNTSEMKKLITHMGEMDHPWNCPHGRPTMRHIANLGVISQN
MLH1-PMS2 (Homo sapiens), one chain, as listed by the source, chain 1 of 2: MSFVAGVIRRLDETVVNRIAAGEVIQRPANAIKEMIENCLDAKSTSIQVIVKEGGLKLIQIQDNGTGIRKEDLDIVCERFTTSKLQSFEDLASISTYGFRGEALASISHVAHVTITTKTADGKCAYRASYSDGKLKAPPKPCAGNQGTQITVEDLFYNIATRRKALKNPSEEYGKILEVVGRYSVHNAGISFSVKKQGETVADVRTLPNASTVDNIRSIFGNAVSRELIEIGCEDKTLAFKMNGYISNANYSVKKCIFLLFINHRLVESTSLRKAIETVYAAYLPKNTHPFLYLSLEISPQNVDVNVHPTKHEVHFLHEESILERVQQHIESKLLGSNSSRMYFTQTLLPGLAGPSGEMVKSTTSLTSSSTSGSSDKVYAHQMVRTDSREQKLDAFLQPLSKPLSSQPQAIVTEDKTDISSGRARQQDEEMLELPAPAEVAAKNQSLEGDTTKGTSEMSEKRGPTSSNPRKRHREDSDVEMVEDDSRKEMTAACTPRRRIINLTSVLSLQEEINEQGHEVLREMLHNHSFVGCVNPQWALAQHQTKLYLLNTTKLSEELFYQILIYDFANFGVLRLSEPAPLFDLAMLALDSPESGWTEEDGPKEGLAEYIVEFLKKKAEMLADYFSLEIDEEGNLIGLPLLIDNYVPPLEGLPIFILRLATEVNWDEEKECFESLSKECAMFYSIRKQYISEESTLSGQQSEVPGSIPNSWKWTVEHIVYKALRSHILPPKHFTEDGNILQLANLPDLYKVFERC
Mlh1-Mlh3 (Saccharomyces cerevisiae), one chain, as listed by the source, chain 1 of 2: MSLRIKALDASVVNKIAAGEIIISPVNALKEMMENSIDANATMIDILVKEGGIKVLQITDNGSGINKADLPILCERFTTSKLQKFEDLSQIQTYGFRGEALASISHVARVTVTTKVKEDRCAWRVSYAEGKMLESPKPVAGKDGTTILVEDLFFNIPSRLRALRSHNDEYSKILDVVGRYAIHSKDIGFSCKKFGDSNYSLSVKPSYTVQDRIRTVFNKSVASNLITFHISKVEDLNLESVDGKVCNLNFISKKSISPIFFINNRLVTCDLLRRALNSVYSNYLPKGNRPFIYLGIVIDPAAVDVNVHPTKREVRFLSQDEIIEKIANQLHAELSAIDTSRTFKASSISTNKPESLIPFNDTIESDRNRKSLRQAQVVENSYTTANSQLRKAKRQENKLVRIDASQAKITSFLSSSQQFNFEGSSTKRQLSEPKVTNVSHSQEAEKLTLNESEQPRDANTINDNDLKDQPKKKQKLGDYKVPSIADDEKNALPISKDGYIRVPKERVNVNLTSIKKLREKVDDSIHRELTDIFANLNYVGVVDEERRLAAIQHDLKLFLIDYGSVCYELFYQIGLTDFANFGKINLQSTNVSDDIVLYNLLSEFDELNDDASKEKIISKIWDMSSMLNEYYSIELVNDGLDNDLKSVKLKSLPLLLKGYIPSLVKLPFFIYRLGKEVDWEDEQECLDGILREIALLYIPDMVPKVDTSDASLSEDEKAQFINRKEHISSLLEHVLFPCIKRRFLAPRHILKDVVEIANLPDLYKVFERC

“GGGTCAACGTGGGCAAAGATGTCCTAGCAAGTCAGAATTCGGTAGCGTG / ACAGCTACCGAATTCTGACTTGCTAGGACATCTTTGCCCACGTTGACCC [homoduplex oligonucleotide (AO3142/AO3144)]”: binds more weakly [1].

“GGGTCAACGTGGGCAAAGATGTCCTAGCAAGTCAGAATTCGGTAGCGTG / CACGCTACCGAATTCTGACTTGCTAGGTGTGTGTGACATCTTTGCCCACGTTGACCC [+8 loop oligonucleotide (AO3142/AO3143)]”: binds (MLH1-PMS2 (Homo sapiens)).

Reference: paper PMC5409509
